Test results from ChEMBL document CHEMBL4732114, “Design and structural optimization of novel 2H-benzo[h]chromene derivatives that target AcrB and reverse bacterial multidrug resistance” (Eur J Med Chem, 2021).

Test system: HepG2
Test: Cytotoxicity against human HepG2 cells assessed as growth inhibition
Format: ADME, cell-based
In short: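 HepG2 cells exposed to compound; viability or inhibition rate measured, with paclitaxel as positive control.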

## CC(=O)O[C@H]1C(=O)[C@@]2(C)[C@H]([C@H](OC(=O)c3ccccc3)[C@]3(O)C[C@H](OC(=O)[C@H](O)[C@@H](NC(=O)c4ccccc4)c4ccccc4)C(C)=C1C3(C)C)[C@]1(OC(C)=O)CO[C@@H]1C[C@@H]2O [PACLITAXEL]
  IC50: 12.6 nM
